Earlier results in EP1182931B1, “STABLE BIOCIDAL COMPOSITIONS” (NUFARM LIMITED, priority 1999, dated 2000).
At least one compound was matched to its structure with a doubt left.

Tests used:
Details in all cases: Spectrum of Activity; cited from earlier work
[1] = test system: Mites
[2] = test system: Flies
[3] = test system: Ticks
[4] = test system: Gastrointestinal Worms
[5] = test system: Tapeworms
[6] = test system: Lice
[7] = test system: Fluke
[8] = test system: Lung-worms

CO/N=C1\C[C@]2(C[C@@H]3C[C@@H](C/C=C(\C)C[C@@H](C)/C=C/C=C4\CO[C@@H]5[C@H](O)C(C)=C[C@@H](C(=O)O3)[C@]45O)O2)O[C@H](/C(C)=C/C(C)C)[C@H]1C [Moxidectin]
Ectoparasites Mites [1]: +
Ectoparasites Flies [2]: +
Ectoparasites Ticks [3]: +
Nematodes Gastrointestinal Worms [4]: +
Cestodes Tapeworms [5]: -
Ectoparasites Lice [6]: +
Trematodes Fluke [7]: -
Nematodes Lung-worms [8]: +
